Measured values as given in patent US7135457B1, “Random peptides that bind to gastro-intestinal tract (GIT) transport receptors and related methods” (Cytogen Corporation, priority 1997, dated 2006).
Not every detail of the peptide structures is certain; ends, links or a residue may be inferred. Peptide text beside a SMILES is read from it. * marks the point of attachment. Dansyl = CN(C)c1cccc2c(S(=O)(=O)*)cccc12

Tested on: P100 membrane fractions derived from Caco-2 cells
Assay: Dansylated peptide ELISA on P100: PAX2 and HAX42 peptides relative binding
Settings: HAX42 peptides, ratio to ZElan021 (arbitrary 1.00)
Experimental: The peptides and proteins were analyzed by a dansylated peptide ELISA method in which 96 well plates were coated overnight at 4° C. with 100 μl/well coating protein (normally 100 μg/ml P100 membrane fraction) in 0.05M carbonate buffer pH9.6. Nonspecific binding was blocked using 200 μl/well, 2% Marvel/PBS for 2 hours at 37° C. prior to incubation with dansylated peptides. The plates were washed three times with PBS/0.05% Tween 20 and after each subsequent incubation step. […] A buffer blank control was included to ensure that background binding to plastic was not due to the antibodies used in the assay system. […] The plates were then incubated with an anti-mouse λ-HRP conjugated antibody (Southern Biotech 1060-05) at a 1:10,000 dilution in blocking solution, 100 μl/well for 1 hour at room temperature. Plates were developed using 75 μl/well Bionostics TMB substrate and incubated for approximately 10 minutes. The developing reaction was stopped using Bionostics Red Stop solution (25 μl/well), and the optical density of the plates was read at 650 nm.

Row | SMILES | Binding value at 25 μg/ml (first 25 μg/ml column) | Binding value at 25 μg/ml (second 25 μg/ml column) | Binding value at 25 μg/ml (third 25 μg/ml column)
1 | CC(C)C[C@H](NC(=O)[C@H](C)NC(=O)[C@H](Cc1c[nH]cn1)NC(=O)[C@H](CC(=O)O)NC(=O)[C@H](CO)NC(=O)[C@@H](N)CCCCNS(=O)(=O)c1cccc2c(N(C)C)cccc12)C(=O)NCC(=O)N[C@H](C(=O)N[C@@H](CC(N)=O)C(=O)N[C@@H](CC(C)C)C(=O)N[C@@H](CCCNC(=N)N)C(=O)N[C@@H](CO)C(=O)N[C@@H](CC(=O)O)C(=O)N[C@@H](CC(N)=O)C(=O)N[C@@H](C)C(=O)N[C@@H](CCCCN)C(=O)N[C@@H](CCC(=O)O)C(=O)N1CCC[C@H]1C(=O)NCC(=O)N[C@@H](CC(=O)O)C(=O)N[C@@H](Cc1ccc(O)cc1)C(N)=O)[C@@H](C)O [ZElan087] (H-K(Dansyl)SDHALGTNLRSDNAKEPGDY-NH2) | 0.46 | 0.44 | 
2 | CC(C)C[C@H](NC(=O)[C@H](C)NC(=O)[C@H](Cc1c[nH]cn1)NC(=O)[C@H](CC(=O)O)NC(=O)[C@H](CO)NC(=O)[C@@H](N)CCCCNS(=O)(=O)c1cccc2c(N(C)C)cccc12)C(=O)NCC(=O)N[C@H](C(=O)N[C@@H](CC(N)=O)C(=O)N[C@@H](CC(C)C)C(=O)N[C@@H](CCCNC(=N)N)C(=O)N[C@@H](CO)C(=O)N[C@@H](CC(=O)O)C(=O)N[C@@H](CC(N)=O)C(=O)N[C@@H](C)C(=O)N[C@@H](CCCCN)C(N)=O)[C@@H](C)O [ZElan089] (H-K(Dansyl)SDHALGTNLRSDNAK-NH2) | 0.55 | 0.44 | 0.49
3 | C[C@@H](O)[C@H](NC(=O)[C@H](CO)NC(=O)[C@H](CC(N)=O)NC(=O)CNC(=O)[C@H](CC(N)=O)NC(=O)CNC(=O)[C@H](CS)NC(=O)[C@H](CS)NC(=O)[C@H](CC(N)=O)NC(=O)[C@H](Cc1ccc(O)cc1)NC(=O)[C@H](CC(=O)O)NC(=O)CNC(=O)[C@@H]1CCCN1C(=O)[C@@H](N)CCCCNS(=O)(=O)c1cccc2c(N(C)C)cccc12)C(=O)NCC(N)=O [ZElan091] (H-K(Dansyl)PGDYNCCGNGNSTG-NH2) |  |  | 1.20
4 | CN(C)c1cccc2c(S(=O)(=O)NCCCC[C@H](N)C(=O)N3CCC[C@H]3C(=O)NCC(=O)N[C@@H](CC(=O)O)C(=O)N[C@@H](Cc3ccc(O)cc3)C(=O)N[C@@H](CC(N)=O)C(=O)N[C@@H](CS)C(=O)N[C@@H](CS)C(=O)NCC(=O)N[C@@H](CC(N)=O)C(=O)NCC(N)=O)cccc12 [ZElan092] (H-K(Dansyl)PGDYNCCGNG-NH2) |  | 1.90 | 0.91
